Source: patent publication US20220411491A1

B1: 10B10 IgG (antibody, V domains shown)
VH: EVQLVESGGGLVQPGRSMKLSCAASGFTFTNFYMAWVRQAPTKALEWVASINTGGGYTYYRDSVKGRFTVSRDNTRSTLYLQMDSLRSEETATYYCARHLTYYGRYYYFDYWGQGVMVTVSS
VL: DIQLTQSPHSLSASLGETVSIECLASEGISNYLAWFHQKPGKSPQLLIYYASSLQDGVPSRFSGSGSGTQYSLKISNMQPEDEGVYYCQQGYKYPLTFGSGTKLEIK
B2: 07A04 IgG (antibody, V domains shown)
VH: QVTLKESGPGILQPSHTLSLTCSFSGFSLSTYGMGVNWIRQPSGKGLEWLASIWWNGNTYNNPSLKSRLTVSKDTSNNQAFLKVTSVDTADTATYYCVHTRGIIRGRGLFFDYWGQGVMVTVSS
VL: DVQMTQSPYNLAASPGESVSINCKASKSISKYLAWYQQKPGKANKLLIYDGSTLQSGIPSRFSGSGSGTDFTLTIRSLEPEDFGLYYCQQHNEYPLTFGSGTKLEIKR
B3: 5E11 IgG (antibody, V domains shown)
VH: ELQLEQSGGGLVQPGGSLTLSCAASGFTFSKYAMAWVRQAPTKGLEWVASISTGGVNTYYRDSVKARFTISRDNAKNTQYLQMDSLRSEDTATYYCATHTGDYFDYWGQGVMVTVSS
VL: DIVLTQSPALAVSPGQRATISCRASQSVSISGINLMNWYQQKPGQQPKLLIYHASILASGIPTRFSGSGSGTDFTLTIDPVQADDIATYYCQQTRESPLTFGSGTNLEIK
B4: 5F11 IgG (antibody, V domains shown)
VH: EVQLVESGGGLVQPGRSLKLSCAASGFSFSNYGMAWVRQAATKGLEWVASISTGGGNTYYRDSVKGRFIVSRDNAKNTQYLQMDSLRSEDTATYYCTRHDRGGLYWGQGVMVTVSS
VL: DIVMTQAPLSVSVTPGESASISCRSSKSLLHSNGITYVYWYFQKPGKSPQVLIYRMSNLASGVPDRFSGSGSETDFTLKISRVEAEDVGIYHCGQLLENPYTFGAGTELELK

Molecular target: cynomolgus GPRC5D (cynomolgus)
Assay: cell ELISA on CHO cells expressing cynomolgus GPRC5D

Binder | binding
B1 | binds
B2 | binds
B3 | binds
B4 | binds

No constants are given. Whether binding was seen depends on the method and setting. A result given as binding can be weak or reduced; the word gives no strength.
